PubChem BioAssay AID624150, Cancer Research UK Cambridge, 2012
Shown is one part, drawn at random, of 331 reagents. 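Each arm had three replicate z-scores, but only the first replicate is printed; higher values mean more differentiation marker per cell.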

Test: 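Which chromatin factors steer differentiation of epidermal stem cells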 (primary screen)
System: primary human epidermal keratinocytes
Reagents: siRNA pool against human genes, 1-2 µM siRNA in 20 µl nucleofection
Timing: 72 h after transfection plus 48 h differentiation (about 5 days)
Treatment: five arms for 48 h: vehicle, AG1478 10 µM, BMP2/7 200 ng/ml, both together, or 10% serum
Detection: 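Per-cell amount of a differentiation marker read by infrared scanning of the plate, given as a z-score within each plate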
Scale: z-score, vehicle and z-score, AG1478 10 µM and z-score, BMP2/7 200 ng/ml and z-score, AG1478 with BMP2/7 and z-score, 10% serum: higher = more differentiation marker per cell

Gene | z-score, vehicle | z-score, AG1478 10 µM | z-score, BMP2/7 200 ng/ml | z-score, AG1478 with BMP2/7 | z-score, 10% serum
PRDM9 | -1.1 | 0.969 | 1.35 | 0.737 | 0.522
MLLT10 | -0.743 | -0.157 | -0.415 | -0.151 | -0.32
PRMT8 | -0.288 | 0.259 | 0.275 | 0.508 | -0.351
BRWD1 | 1.52 | 1.8 | 1.59 | 1.22 | 1.97
UTY | -0.25 | 0.831 | 0.704 | 0.248 | 1.33
PSIP1 | -0.48 | -0.438 | -0.626 | -0.547 | -0.662
CBX4 | -0.525 | -0.266 | 0.224 | 0.191 | -0.233
SMYD2 | 0.213 | 0.437 | 1.62 | -0.12 | 0.391
KAT6B | 0.479 | 2.08 | 1.13 | 1.88 | 1.27
HAT1 | -0.025 | -0.671 | -0.857 | 0.0843 | 0.151
CECR2 | -0.308 | 1.26 | 1.08 | 0.951 | 1.11
NCOA1 | -1.23 | -0.572 | -0.271 | 0.218 | -0.351
GATAD2A | 2.6 | 0.0333 | -0.616 | 2.3 | 0.837
MSH6 | -1.15 | -0.568 | -1.12 | -0.638 | -1.27
CHD4 | -2.09 | -2.55 | -1.87 | -2.7 | -2.47
BAHCC1 | 0.768 | 0.462 | 0.196 | 0.373 | -0.404
STK31 | 2.08 | 1.96 | 2.03 | 2.29 | 0.37
EHMT2 | -0.865 | -0.43 | -0.874 | -0.26 | -1.14
PRMT7 | -0.721 | -1.11 | -0.385 | -0.922 | -0.762
PHF12 | -0.233 | 0.829 | 0.4 | 0.742 | 0.346
PHF20 | -0.455 | -0.798 | -0.282 | -1.05 | -0.3
BRD8 | 1.31 | 0.455 | 1.27 | -0.411 | 1.09
KDM3B | -0.564 | -0.718 | -0.496 | -0.992 | -0.404
SETDB2 | -0.542 | -0.693 | -0.0714 | -0.703 | -0.119
SMARCA1 | -0.248 | -0.412 | -0.486 | 0.143 | 0.0914
PRDM8 | -0.719 | -0.971 | -0.074 | -0.244 | -1.46
TP53BP1 | -0.415 | 0.184 | -0.0287 | 0.518 | -0.254
G2E3 | 0.0692 | 1.03 | 1.22 | 1.35 | 0.0952
SETD6 | 0.277 | 0.169 | 0.311 | 1.24 | 0.457
CHD7 | -0.413 | -0.469 | -0.2 | 0.74 | -0.0841
RAD54B | -0.126 | 0.704 | -0.548 | -0.959 | -0.382
SETMAR | -1.03 | -0.552 | -0.751 | -0.506 | -1.31
BRD9 | -0.495 | -0.694 | -0.731 | -0.0288 | -0.174
HDGFL2 | 0.805 | 0.548 | -0.686 | -0.641 | 0.561
TCF19 | -1.14 | -1.63 | -1.04 | -1 | -0.821
RNMT | -0.35 | -0.647 | -1.04 | -0.5 | -0.0455
RARA | 0.666 | 0.0729 | -0.51 | -0.575 | 0.707
CHD3 | -1 | -1.61 | -1.54 | -1.1 | -1.79
MPHOSPH8 | 1.16 | 1.39 | 1.09 | 0.916 | 0.609
SETD5 | 1.14 | 1.9 | 1.08 | 1.44 | 1.98
CXXC1 | -0.849 | -0.673 | -0.766 | 0.227 | -1.55
ZMYND11 | -0.288 | -1.03 | -0.732 | -0.305 | -0.222
ING2 | -0.141 | -0.138 | -0.189 | -0.934 | 0.0735
PHF13 | 0.342 | 0.438 | 0.767 | 1.09 | 1.43
KDM4B | -2.69 | 0.0855 | -0.165 | -0.72 | -0.257
HINFP | -1.49 | -0.0212 | 0.29 | 0.00892 | -0.225
MBD3L2 | -0.668 | -0.248 | -0.261 | -0.222 | 0.731
TAF1L | 0.218 | 1.29 | 0.123 | 0.507 | 0.839
ELP3 | 0.788 | 0.61 | 0.848 | 0.856 | 0.904
ATRX | 1.08 | 1.93 | 1.99 | 1.7 | 1.91

Single entries from above:
Result for BRD9 under “z-score, AG1478 with BMP2/7”: -0.0288
Entry of TAF1L under “z-score, AG1478 with BMP2/7”: 0.507
BRD8, z-score, AG1478 10 µM: 0.455
CHD3, z-score, BMP2/7 200 ng/ml → -1.54
Value of SETD6 in “z-score, 10% serum”: 0.457
Result for PRDM9 in “z-score, BMP2/7 200 ng/ml”: 1.35
